Data source: PubChem BioAssay AID686938 (Drosophila RNAi Screening Center, 2013)

Aim: 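Fly genes required for calcium entry once internal stores are emptied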 (primary screen)
Cell system: Drosophila S2R+ cells
Reagents: long dsRNA against Drosophila genes, about 0.25 µg dsRNA per well, roughly 10,000 cells
Time to read-out: 5 days of knock-down before the calcium assay
Challenge: thapsigargin (SERCA pump blocker) to empty calcium stores; entry signal taken 4 min after adding it
Detection: 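Duplicate raw fluo-4 intensities per well from a plate reader, at rest and four minutes after thapsigargin emptied calcium stores; entry-to-rest ratio filled for only some wells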
Direction: calcium entry signal: higher = stronger calcium signal after store depletion; entry to resting ratio: higher = more calcium entry relative to resting level; resting calcium signal: higher = higher resting calcium signal
Active means: 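Hit if the duplicate-averaged plate z-score for entry over resting signal is under −3; wells with weak total dye signal (Fmax z < −2) or more than 5 off-targets removed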
Meaning of the calls: active = strongly reduced calcium entry; inactive = no strong reduction
The screen tested about 23,000 reagents; this is a random part of those with a known target gene and a result. Over the whole deposit, 75 (0.33%) were called active. 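Raw plate signals without normalisation; calls rest on plate z-scores that were not deposited; ratio present for only 364 wells.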 Unmarked entries are inactive. The record does not give: the dose of the treatment.

| predicted target | amplicon | calcium entry signal, replicate 1 (fluorescence units) | calcium entry signal, replicate 2 (fluorescence units) | entry to resting ratio | resting calcium signal, replicate 1 (fluorescence units) | resting calcium signal, replicate 2 (fluorescence units) |
| --- | --- | --- | --- | --- | --- | --- |
| tzn (tenzing norgay) | DRSC11755 | 4.73e7 | 4.62e7 | – | 2.04e7 | 3.21e7 |
| CG17896 | DRSC18502 | 5.51e7 | 5.17e7 | – | 2.31e7 | 2.33e7 |
| CG3703 | DRSC18172 | 3.49e7 | 5.92e7 | 2.1 | 1.68e7 | 2.09e7 |
| CG3703 | DRSC18173 | 3.99e7 | 5.45e7 | 2 | 2.00e7 | 2.08e7 |
| CG3703 | DRSC18643 | 3.39e7 | 5.72e7 | 2 | 1.69e7 | 2.11e7 |
| TwdlB (TweedleB) | DRSC16050 | 1.58e7 | 3.49e7 | – | 9.43e6 | 1.56e7 |
| Bili (Band4.1 inhibitor LRP interactor) | DRSC14405 | 3.97e7 | 3.15e7 | – | 1.87e7 | 1.49e7 |
| Polr2E (RNA polymerase II, I and III subunit E) | DRSC06100 | 1.45e7 | 3.70e7 | – | 9.86e6 | 1.66e7 |
| Brr2 (Brr2 U5 snRNP complex subunit) | DRSC10559 | 2.88e7 | 2.09e7 | – | 2.56e7 | 1.21e7 |
| Ugt49B1 (UDP-glycosyltransferase family 49 member B1) | DRSC04461 | 2.65e7 | 4.51e7 | – | 1.47e7 | 1.91e7 |
| CG14315 | DRSC14794 | 3.33e7 | 3.71e7 | – | 4.23e7 | 1.55e7 |
| CG31473 | DRSC15443 | 4.10e7 | 3.23e7 | – | 1.89e7 | 1.46e7 |
| CG32195 | DRSC09533 | 4.44e7 | 4.54e7 | – | 2.01e7 | 2.40e7 |
| CG6674 | DRSC10692 | 5.14e7 | 3.57e7 | – | 3.20e7 | 1.53e7 |
| CG10694 | DRSC14263 | 5.44e7 | 5.08e7 | – | 2.50e7 | 1.82e7 |
| Dscam4 (Down syndrome cell adhesion molecule 4) | DRSC08911 | 2.43e7 | 2.56e7 | – | 1.32e7 | 1.16e7 |
| Dscam4 (Down syndrome cell adhesion molecule 4) | DRSC08913 | 2.69e7 | 4.67e7 | – | 1.35e7 | 2.14e7 |
| Dscam4 (Down syndrome cell adhesion molecule 4) | DRSC10031 | 1.70e7 | 3.73e7 | – | 9.19e6 | 1.65e7 |
| Dscam4 (Down syndrome cell adhesion molecule 4) | DRSC10329 | 1.20e7 | 2.29e7 | – | 7.84e6 | 1.31e7 |
| Dscam4 (Down syndrome cell adhesion molecule 4) | DRSC10765 | 2.29e7 | 4.00e7 | – | 1.21e7 | 1.92e7 |
| CG3706 | DRSC18649 | 4.00e7 | 3.03e7 | 2.4 | 1.69e7 | 1.32e7 |
| O-fut1 (O-fucosyltransferase 1) | DRSC06138 | 4.69e7 | 4.09e7 | – | 1.92e7 | 1.95e7 |
| CG1113 | DRSC12163 | 3.34e7 | 1.91e7 | – | 1.49e7 | 1.03e7 |
| CG13427 | DRSC06389 | 4.27e7 | 3.88e7 | – | 1.94e7 | 1.92e7 |
| CG14543 | DRSC14887 | 2.56e7 | 2.14e7 | – | 1.45e7 | 1.08e7 |
| ebd2 (earthbound 2) | DRSC11682 | 3.01e7 | 4.29e7 | – | 1.62e7 | 2.08e7 |
| Afg3l2 (AFG3 like matrix AAA peptidase subunit 2) | DRSC10657 | 3.01e7 | 4.33e7 | – | 1.55e7 | 3.02e7 |
| CG10584 | DRSC11624 | 3.39e7 | 4.96e7 | – | 1.63e7 | 2.18e7 |
| btl (breathless) | DRSC11331 | 3.27e7 | 3.44e7 | – | 1.45e7 | 1.40e7 |
| CG7148 | DRSC11802 | 2.61e7 | 3.37e7 | – | 1.26e7 | 2.37e7 |
| CG1695 | DRSC20538 | 5.15e7 | 4.43e7 | – | 2.34e7 | 1.92e7 |
| Cyp40 (Cyclophilin 40) | DRSC10980 | 5.19e7 | 4.22e7 | – | 3.32e7 | 1.77e7 |
| Usp47 (Ubiquitin specific protease 47) | DRSC11313 | 3.49e7 | 2.80e7 | – | 2.34e7 | 1.13e7 |
| karr | DRSC20681 | 4.73e7 | 4.88e7 | – | 2.39e7 | 2.26e7 |
| Yp3 (Yolk protein 3) | DRSC20302 | 2.06e7 | 1.83e7 | – | 1.15e7 | 9.33e6 |
| CG32302 | DRSC08340 | 3.20e7 | 4.46e7 | – | 1.61e7 | 1.93e7 |
| Svil (Supervillin) | DRSC07981 | 2.50e7 | 4.90e7 | – | 2.23e7 | 2.19e7 |
| Svil (Supervillin) | DRSC08296 | 4.24e7 | 3.94e7 | – | 1.82e7 | 2.02e7 |
| Svil (Supervillin) | DRSC08332 | 4.30e7 | 4.32e7 | – | 2.04e7 | 1.89e7 |
| Svil (Supervillin) | DRSC08333 | 3.72e7 | 3.59e7 | – | 2.25e7 | 1.76e7 |
| Svil (Supervillin) | DRSC08494 | 3.92e7 | 3.75e7 | – | 1.96e7 | 1.78e7 |
| CG32712 | DRSC17820 | 3.30e6 | 2.50e7 | – | 3.38e6 | 1.20e7 |
| Rnf11 (Ring finger protein 11) | DRSC21574 | 3.64e7 | 3.33e7 | – | 2.26e7 | 1.57e7 |
| CR33221 (pseudo) | DRSC21201 | 4.08e7 | 3.67e7 | – | 2.20e7 | 1.84e7 |
| UBL3 (Ubiquitin like 3) | DRSC20298 | 4.12e7 | 3.50e7 | – | 2.28e7 | 1.82e7 |
| UBL3 (Ubiquitin like 3) | DRSC23292 | 4.42e7 | 3.23e7 | – | 2.08e7 | 1.47e7 |
| Gr93b (Gustatory receptor 93b) | DRSC22063 | 3.48e7 | 5.11e7 | – | 1.71e7 | 2.35e7 |
| Hexo2 (Hexosaminidase 2) | DRSC18671 | 3.41e7 | 3.86e7 | – | 1.71e7 | 1.78e7 |
| CG32971 | DRSC01372 | 1.86e7 | 3.41e7 | – | 1.09e7 | 1.54e7 |
| ova (ovaries absent) | DRSC02879 | 4.29e7 | – | – | 2.45e7 | – |
| Nox (NADPH oxidase) | DRSC06596 | 5.46e7 | 5.31e7 | – | 2.25e7 | 2.59e7 |
| Nox (NADPH oxidase) | DRSC06857 | 6.10e7 | 4.93e7 | – | 2.30e7 | 2.21e7 |
| CG15571 | DRSC18059 | 3.44e7 | 4.76e7 | – | 1.68e7 | 2.15e7 |
| ncm (nucampholin) | DRSC02179 | 1.04e7 (active) | – | – | 8.21e6 | – |
| CG14626 | DRSC18631 | 5.68e7 | 6.08e7 | 2.1 | 2.72e7 | 2.50e7 |
| Pyroxd1 (Pyridine nucleotide-disulfide oxidoreductase domain 1) | DRSC02098 | 4.47e7 | 4.42e7 | – | 2.25e7 | 1.91e7 |
| Cftr (CF transmembrane conductance regulator) | DRSC15872 | 5.39e7 | 4.71e7 | – | 2.49e7 | 2.04e7 |
| CG2224 | DRSC15429 | 3.26e7 | 5.28e7 | – | 1.73e7 | 2.17e7 |

A portion from the list above, for reference:
| predicted target | amplicon | calcium entry signal, replicate 1 (fluorescence units) | calcium entry signal, replicate 2 (fluorescence units) | entry to resting ratio | resting calcium signal, replicate 1 (fluorescence units) | resting calcium signal, replicate 2 (fluorescence units) |
| --- | --- | --- | --- | --- | --- | --- |
| Svil (Supervillin) | DRSC08296 | 4.24e7 | 3.94e7 | – | 1.82e7 | 2.02e7 |
| Svil (Supervillin) | DRSC08332 | 4.30e7 | 4.32e7 | – | 2.04e7 | 1.89e7 |
| Svil (Supervillin) | DRSC08333 | 3.72e7 | 3.59e7 | – | 2.25e7 | 1.76e7 |
| Svil (Supervillin) | DRSC08494 | 3.92e7 | 3.75e7 | – | 1.96e7 | 1.78e7 |
